Test results published in PubChem BioAssay AID540275 (National Center for Advancing Translational Sciences (NCATS), 2011).
The campaign covered roughly 320,000 compounds. About 620 (0.19%) were called active. All entries are inconclusive by the source's own rule. Clear calls are listed elsewhere. Cut-off read from the data, not from the text of the source: active = activation above about 80%; inconclusive = between about 30% and that limit; inactive = weaker than that.

By UniProt entry, the sequences of proteins in these tests, tags left out.
UniProt Q8NER1, whole entry: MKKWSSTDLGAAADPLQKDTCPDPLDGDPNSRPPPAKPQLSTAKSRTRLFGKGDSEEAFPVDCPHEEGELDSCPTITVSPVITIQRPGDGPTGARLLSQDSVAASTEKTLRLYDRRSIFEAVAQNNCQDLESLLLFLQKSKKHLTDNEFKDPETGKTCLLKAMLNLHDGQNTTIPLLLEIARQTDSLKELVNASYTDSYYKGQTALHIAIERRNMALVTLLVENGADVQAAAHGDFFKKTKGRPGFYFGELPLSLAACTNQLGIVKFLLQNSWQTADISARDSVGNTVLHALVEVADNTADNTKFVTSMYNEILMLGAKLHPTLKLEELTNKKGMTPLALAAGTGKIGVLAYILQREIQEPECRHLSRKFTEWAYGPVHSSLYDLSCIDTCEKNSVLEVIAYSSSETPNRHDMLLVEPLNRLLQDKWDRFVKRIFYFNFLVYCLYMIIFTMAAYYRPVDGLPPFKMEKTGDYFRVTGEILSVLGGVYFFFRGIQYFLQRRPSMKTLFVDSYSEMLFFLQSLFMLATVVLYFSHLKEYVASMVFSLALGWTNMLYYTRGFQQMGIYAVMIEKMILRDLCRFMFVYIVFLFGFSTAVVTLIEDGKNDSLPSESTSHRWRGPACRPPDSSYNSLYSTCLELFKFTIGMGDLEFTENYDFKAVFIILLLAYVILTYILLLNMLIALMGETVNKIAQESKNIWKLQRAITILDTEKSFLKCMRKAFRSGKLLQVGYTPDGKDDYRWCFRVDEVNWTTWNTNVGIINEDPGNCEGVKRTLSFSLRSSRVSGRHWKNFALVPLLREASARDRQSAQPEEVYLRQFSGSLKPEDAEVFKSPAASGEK

biological target: Transient receptor potential cation channel subfamily V member 1 (Homo sapiens) (UniProt Q8NER1); test: HTS Assay for Compounds that Act as Agonists of the Vanilloid Receptor 1; conditions: TRPV1-expressing cells, Fluo-8 calcium influx, agonist mode
Excerpt: The transient receptor potential ion channel, family V, number 1, (TRPV1) is one of the most important molecular transducers of painful stimuli and a potential target for analgesic drug development. Although recent clinical trials with orthosteric antagonists have not produced a successful drug because of a hyperthermia side effect and their tendency to block thermal noxious pain, this ion channel is undeniably well placed in the pain pathway, and the idea of blocking pain signals before they enter the CNS is an excellent concept and of proven efficacy when TRPV1 agonists are used. […]
Upon TRPV1 activation in TRPV1 cells, the channel opens and extracellular cations flow through the channel into the cytosol. […] The amount of accumulated calcium is precisely quantified using the FDSS kinetic reader and the calcium dye. […] Plates will be loaded into the FDSS kinetic reader and a 1 sec / cycle for 10 second baseline signal will be measured. Compound library will then be added with a pintool at 23 nl and measured kinetically for 3 minutes. This portion of the read is considered the agonist portion of the screen. […] Signal will be measured kinetically for an additional 2 minutes. This portion of the read is considered the allosteric enhancer portion of the screen. The FDSS reader has a standard filter set capable of measuring calcium bound Fluo-8 (ex=480 and em=520 nm).

| Compound | outcome |
| --- | --- |
| CCOC(=O)N1CCC(Nc2ccc(C)cc2)CC1 | inconclusive |
| COc1ccc(Cl)cc1C(=O)NCC1(N2CCOCC2)CCCCC1 | inconclusive |
